Binding data for five molecules are collected here from PMC11736008.

These are yes or no findings as the source states them, for the method shown. In cells and extracts the contact can be indirect. Some entries that bind do so weakly or less than the wild type.

The target of experiment [1] is T1, IFIT3 (human (endogenous in human LUAD cell line)) (UniProt O14879).
T1 sequence: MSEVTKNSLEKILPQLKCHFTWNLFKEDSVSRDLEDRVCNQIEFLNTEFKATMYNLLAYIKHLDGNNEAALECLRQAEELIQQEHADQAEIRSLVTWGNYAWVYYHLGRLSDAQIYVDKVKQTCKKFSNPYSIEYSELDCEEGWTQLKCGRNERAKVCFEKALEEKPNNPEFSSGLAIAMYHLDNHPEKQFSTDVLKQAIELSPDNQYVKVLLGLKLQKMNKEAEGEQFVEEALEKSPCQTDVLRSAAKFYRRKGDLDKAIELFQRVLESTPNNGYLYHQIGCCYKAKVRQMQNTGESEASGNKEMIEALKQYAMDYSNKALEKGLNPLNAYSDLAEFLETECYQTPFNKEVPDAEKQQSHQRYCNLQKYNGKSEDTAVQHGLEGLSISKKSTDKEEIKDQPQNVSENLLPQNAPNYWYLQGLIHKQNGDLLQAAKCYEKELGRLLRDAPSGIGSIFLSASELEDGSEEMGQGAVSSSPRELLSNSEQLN
The experiment can be described thus: co-IP; endogenous proteins in cell lysate (H1975 for OAS1/IFIT1); Western/IP lysis buffer, 3 ug of anti-OAS or anti-IFIT antibody and protein A/G beads overnight at 4 °C; IgG control in parallel; immunoblot. On the technique in general: A western blot detects proteins with antibodies after separation by electrophoresis.

Experiment [2] concerns the target T2, IFIT1 (human (endogenous in H1975)) (UniProt P09914).
T2 sequence: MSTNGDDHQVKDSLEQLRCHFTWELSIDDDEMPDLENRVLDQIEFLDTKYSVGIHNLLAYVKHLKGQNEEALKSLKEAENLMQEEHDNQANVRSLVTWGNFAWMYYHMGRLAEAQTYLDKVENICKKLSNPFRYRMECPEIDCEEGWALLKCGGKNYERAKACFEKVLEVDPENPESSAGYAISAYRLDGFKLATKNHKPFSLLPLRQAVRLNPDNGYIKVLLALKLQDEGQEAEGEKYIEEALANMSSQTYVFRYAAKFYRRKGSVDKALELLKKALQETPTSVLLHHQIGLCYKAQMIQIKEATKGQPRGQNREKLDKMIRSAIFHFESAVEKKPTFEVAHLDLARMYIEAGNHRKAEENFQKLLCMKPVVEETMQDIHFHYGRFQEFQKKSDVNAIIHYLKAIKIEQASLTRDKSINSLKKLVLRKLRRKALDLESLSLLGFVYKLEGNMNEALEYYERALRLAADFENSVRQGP
The description is as above.

The target of experiment [3] is T3, IFIT5 (UniProt Q13325).
T3 sequence: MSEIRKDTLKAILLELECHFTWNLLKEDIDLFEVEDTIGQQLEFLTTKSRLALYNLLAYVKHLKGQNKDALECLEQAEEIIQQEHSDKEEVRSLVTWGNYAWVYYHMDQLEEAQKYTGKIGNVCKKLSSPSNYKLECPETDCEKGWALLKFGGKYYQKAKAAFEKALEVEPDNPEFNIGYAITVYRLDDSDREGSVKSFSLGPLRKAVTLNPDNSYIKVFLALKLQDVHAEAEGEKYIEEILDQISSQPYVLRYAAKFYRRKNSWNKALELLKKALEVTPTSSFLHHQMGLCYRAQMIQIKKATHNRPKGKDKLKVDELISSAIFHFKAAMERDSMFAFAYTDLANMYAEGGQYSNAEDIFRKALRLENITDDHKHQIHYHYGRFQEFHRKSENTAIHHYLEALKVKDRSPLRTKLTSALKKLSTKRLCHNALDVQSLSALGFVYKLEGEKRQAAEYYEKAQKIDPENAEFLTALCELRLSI
The experiment can be described thus: co-IP; anti-Myc antibodies on lysates of H1975 cells overexpressing HA-tagged OAS (WT or Del-NT) and Myc-tagged IFIT (WT or Del-TPR12); protein A/G beads overnight at 4 °C; immunoblot (OAS3/IFIT3 and OAS2/IFIT5 in Fig. S8C, details not shown).

In experiment [4] the target is T4, IFIT3 (in the intrapulmonary H1975 / AAV5-infected mouse model) (human (endogenous in H1975 cells implanted in mouse lung)) (UniProt O14879).
T4 sequence: T1 sequence
In words: co-IP; anti-OAS2 or anti-IFIT3 antibodies on samples of the intrapulmonary injection LUAD-bearing (H1975) mouse model infected with NC or IFIT3-inhibitor AAV; IgG control in parallel; immunoblot.

Experiment [5] deals with T5, IFIT2 (human (endogenous in human LUAD cell line)) (UniProt P09913).
T5 sequence: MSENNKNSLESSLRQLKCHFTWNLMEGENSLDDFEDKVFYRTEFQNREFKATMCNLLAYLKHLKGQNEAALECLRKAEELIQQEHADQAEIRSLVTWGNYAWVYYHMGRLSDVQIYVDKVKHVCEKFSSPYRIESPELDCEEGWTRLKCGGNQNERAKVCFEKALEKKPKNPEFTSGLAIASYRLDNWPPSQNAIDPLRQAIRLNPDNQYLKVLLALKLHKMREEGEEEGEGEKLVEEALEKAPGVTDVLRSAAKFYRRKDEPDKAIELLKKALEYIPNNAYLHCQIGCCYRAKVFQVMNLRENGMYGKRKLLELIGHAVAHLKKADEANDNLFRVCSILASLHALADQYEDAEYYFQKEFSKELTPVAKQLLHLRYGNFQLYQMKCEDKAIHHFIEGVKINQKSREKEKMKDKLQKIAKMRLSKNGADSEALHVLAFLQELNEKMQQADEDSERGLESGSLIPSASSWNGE
In words: co-IP; endogenous proteins in cell lysate (H1975 for OAS1/IFIT1); Western/IP lysis buffer, 3 ug of anti-OAS or anti-IFIT antibody and protein A/G beads overnight at 4 °C; IgG control in parallel; immunoblot.

B1: OAS3 (protein, UniProt Q9Y6K5 1-1087)
chain: MDLYSTPAAALDRFVARRLQPRKEFVEKARRALGALAAALRERGGRLGAAAPRVLKTVKGGSSGRGTALKGGCDSELVIFLDCFKSYVDQRARRAEILSEMRASLESWWQNPVPGLRLTFPEQSVPGALQFRLTSVDLEDWMDVSLVPAFNVLGQAGSGVKPKPQVYSTLLNSGCQGGEHAACFTELRRNFVNIRPAKLKNLILLVKHWYHQVCLQGLWKETLPPVYALELLTIFAWEQGCKKDAFSLAEGLRTVLGLIQQHQHLCVFWTVNYGFEDPAVGQFLQRQLKRPRPVILDPADPTWDLGNGAAWHWDLLAQEAASCYDHPCFLRGMGDPVQSWKGPGLPRAGCSGLGHPIQLDPNQKTPENSKSLNAVYPRAGSKPPSCPAPGPTGAASIVPSVPGMALDLSQIPTKELDRFIQDHLKPSPQFQEQVKKAIDIILRCLHENCVHKASRVSKGGSFGRGTDLRDGCDVELIIFLNCFTDYKDQGPRRAEILDEMRAQLESWWQDQVPSLSLQFPEQNVPEALQFQLVSTALKSWTDVSLLPAFDAVGQLSSGTKPNPQVYSRLLTSGCQEGEHKACFAELRRNFMNIRPVKLKNLILLVKHWYRQVAAQNKGKGPAPASLPPAYALELLTIFAWEQGCRQDCFNMAQGFRTVLGLVQQHQQLCVYWTVNYSTEDPAMRMHLLGQLRKPRPLVLDPADPTWNVGHGSWELLAQEAAALGMQACFLSRDGTSVQPWDVMPALLYQTPAGDLDKFISEFLQPNRQFLAQVNKAVDTICSFLKENCFRNSPIKVIKVVKGGSSAKGTALRGRSDADLVVFLSCFSQFTEQGNKRAEIISEIRAQLEACQQERQFEVKFEVSKWENPRVLSFSLTSQTMLDQSVDFDVLPAFDALGQLVSGSRPSSQVYVDLIHSYSNAGEYSTCFTELQRDFIISRPTKLKSLIRLVKHWYQQCTKISKGRGSLPPQHGLELLTVYAWEQGGKDSQFNMAEGFRTVLELVTQYRQLCIYWTINYNAKDKTVGDFLKQQLQKPRPIILDPADPTGNLGHNARWDLLAKEAAACTSALCCMGRNGIPIQPWPVKAAV
As for B1, in experiment [1], the binding result is given as “binds”.

B2: OAS1 (protein, UniProt P00973 1-400)
chain: MMDLRNTPAKSLDKFIEDYLLPDTCFRMQINHAIDIICGFLKERCFRGSSYPVCVSKVVKGGSSGKGTTLRGRSDADLVVFLSPLTTFQDQLNRRGEFIQEIRRQLEACQRERAFSVKFEVQAPRWGNPRALSFVLSSLQLGEGVEFDVLPAFDALGQLTGGYKPNPQIYVKLIEECTDLQKEGEFSTCFTELQRDFLKQRPTKLKSLIRLVKHWYQNCKKKLGKLPPQYALELLTVYAWERGSMKTHFNTAQGFRTVLELVINYQQLCIYWTKYYDFKNPIIEKYLRRQLTKPRPVILDPADPTGNLGGGDPKGWRQLAQEAEAWLNYPCFKNWDGSPVSSWILLAESNSADDETDDPRRYQKYGYIGTHEYPHFSHRPSTLQAASTPQAEEDWTCTIL
With B2, in experiment [2], the binding entry was “binds”.

B3: OAS2^WT (protein, UniProt P29728 1-719)
chain: MGNGESQLSSVPAQKLGWFIQEYLKPYEECQTLIDEMVNTICDVLQEPEQFPLVQGVAIGGSYGRKTVLRGNSDGTLVLFFSDLKQFQDQKRSQRDILDKTGDKLKFCLFTKWLKNNFEIQKSLDGFTIQVFTKNQRISFEVLAAFNALSLNDNPSPWIYRELKRSLDKTNASPGEFAVCFTELQQKFFDNRPGKLKDLILLIKHWHQQCQKKIKDLPSLSPYALELLTVYAWEQGCRKDNFDIAEGVRTVLELIKCQEKLCIYWMVNYNFEDETIRNILLHQLQSARPVILDPVDPTNNVSGDKICWQWLKKEAQTWLTSPNLDNELPAPSWNVLPAPLFTTPGHLLDKFIKEFLQPNKCFLEQIDSAVNIIRTFLKENCFRQSTAKIQIVRGGSTAKGTALKTGSDADLVVFHNSLKSYTSQKNERHKIVKEIHEQLKAFWREKEEELEVSFEPPKWKAPRVLSFSLKSKVLNESVSFDVLPAFNALGQLSSGSTPSPEVYAGLIDLYKSSDLPGGEFSTCFTVLQRNFIRSRPTKLKDLIRLVKHWYKECERKLKPKGSLPPKYALELLTIYAWEQGSGVPDFDTAEGFRTVLELVTQYQQLCIFWKVNYNFEDETVRKFLLSQLQKTRPVILDPAEPTGDVGGGDRWCWHLLAKEAKEWLSSPCFKDGTGNPIPPWKVPTMQTPGSCGARIHPIVNEMFSSRSHRILNNNSKRNF
Take B3: the binding result in experiment [3] is recorded as “binds”.

B4: OAS2 (in the intrapulmonary H1975 / AAV5-infected mouse model) (protein, UniProt P29728 1-719)
chain: B3 chain
With B4, in experiment [4], the binding entry is “binds”.

B5: OAS2 (protein, UniProt P29728 1-719)
chain: B3 chain
Take B5: the binding result in experiment [5] is reported as “binds”.
